Target: GABAA receptors in SPMs
Set-up: species or system rat
Conditions: read-out: EC50 for reducing ^125I-MmTX2 binding to SPMs

Q: `NCCCC(=O)O` [GABA, γ-aminobutyric acid] was tested. Which EC50 did it give?
A: The EC50 was 2700 nM.

From patent publication US20180009859A1, “PHARMACOLOGICAL MODULATORS OF GABAA RECEPTORS AND THEIR USE” (priority 2015, published 2018)
